Measured values: article PMC4599268
These are yes or no findings as the source states them, for the method shown. In cells and extracts the contact can be indirect. Some results given as binding are weak or reduced against the parent protein; the word gives no strength.

By UniProt entry, the sequences of proteins in these tests, tags left out. Where a name states a change or a piece, a line headed by the entry shows the natural chain unless it says otherwise.
UniProt P51858: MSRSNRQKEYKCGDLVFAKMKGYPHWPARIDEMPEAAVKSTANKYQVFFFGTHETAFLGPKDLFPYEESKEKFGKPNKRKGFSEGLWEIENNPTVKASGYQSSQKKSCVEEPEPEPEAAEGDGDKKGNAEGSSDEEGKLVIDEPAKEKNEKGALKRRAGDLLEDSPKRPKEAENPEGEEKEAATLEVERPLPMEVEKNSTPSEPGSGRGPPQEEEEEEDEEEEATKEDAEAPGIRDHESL
UniProt P19338: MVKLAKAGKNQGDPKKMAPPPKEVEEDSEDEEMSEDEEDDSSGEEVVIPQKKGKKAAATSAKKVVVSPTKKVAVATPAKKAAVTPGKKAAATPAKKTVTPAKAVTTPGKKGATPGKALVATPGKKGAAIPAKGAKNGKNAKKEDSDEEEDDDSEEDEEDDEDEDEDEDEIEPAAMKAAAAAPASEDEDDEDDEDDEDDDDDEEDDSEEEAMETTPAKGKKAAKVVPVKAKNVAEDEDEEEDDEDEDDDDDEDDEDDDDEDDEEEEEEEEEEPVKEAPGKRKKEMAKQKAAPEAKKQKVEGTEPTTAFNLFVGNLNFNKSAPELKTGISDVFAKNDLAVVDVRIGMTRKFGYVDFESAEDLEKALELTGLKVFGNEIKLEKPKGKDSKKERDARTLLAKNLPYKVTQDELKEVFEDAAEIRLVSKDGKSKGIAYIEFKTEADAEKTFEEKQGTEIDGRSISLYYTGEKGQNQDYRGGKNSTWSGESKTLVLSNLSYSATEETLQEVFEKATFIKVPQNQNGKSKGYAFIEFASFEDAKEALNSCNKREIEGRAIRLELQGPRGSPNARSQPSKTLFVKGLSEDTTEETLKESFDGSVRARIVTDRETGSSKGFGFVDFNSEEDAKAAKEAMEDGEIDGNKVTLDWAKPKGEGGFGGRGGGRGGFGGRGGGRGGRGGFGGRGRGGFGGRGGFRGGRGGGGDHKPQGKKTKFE

Target: GST-fused HDGF (human) (UniProt P51858)
Assay: pull-down; GST-HDGF on Glutathione-Sepharose 4B beads, washed with NETN buffer, added to E. coli lysate (300 μL) containing 6xHis-tagged NCL proteins; 1 hour on ice; washed with NETN buffer; blotted with anti-6xHis and anti-GST antibodies; only the target purified

Substance | binding
6xHis-tagged NCL1 (N-terminal domain of NCL, residues 1-284) (from UniProt P19338 1-284) (domain or fragment) | binds
6xHis-tagged NCL residues 1-707 (from UniProt P19338 1-707) | binds
